Measured values reported in patent US6605730B2, “Intermediates for nematicidal pyrazoles” (priority 1998, dated 2003).
Some entries share one result that the patent states for a list of compounds. Some compounds share one range, which may span the group rather than tell each member.

What follows are compounds tested on southern root-knot nematodes (assay: Test on root-knot nematodes (test by soaking nematodes in test solutions)). Details: active ingredient concentration 100 ppm; thermostatic chamber at 25; observed after 2 days.
Type: in vivo

Row | Compound | controlling effect rating (degree of immovableness of the nematodes)
1 | 1-acetyl-3-(4-chlorophenyl)-5-(2-thienyl)-1H-pyrazole and 1-acetyl-3-(2-thienyl)-5-(4-chlorophenyl)-1H-pyrazole [Compound 58] | A (100-70% of the nematodes were immovable.)
2 | Fc1ccc(-c2cc(-c3cccs3)[nH]n2)cc1 [Compound 6, 3-(4-fluorophenyl)-5-(2-thienyl)-1H-pyrazole] | A (100-70% of the nematodes were immovable.)
3 | Clc1ccc(-c2cc(-c3cccs3)[nH]n2)cc1 [Compound 7, 3-(4-chlorophenyl)-5-(2-thienyl)-1H-pyrazole] | A (100-70% of the nematodes were immovable.)
4 | Ic1ccc(-c2cc(-c3cccs3)[nH]n2)cc1 [Compound 9] | A (100-70% of the nematodes were immovable.)
5 | Cc1ccc(-c2cc(-c3cccs3)[nH]n2)cc1 [Compound 10] | A (100-70% of the nematodes were immovable.)
6 | CCc1ccc(-c2cc(-c3cccs3)[nH]n2)cc1 [Compound 11] | A (100-70% of the nematodes were immovable.)
7 | FC(F)(F)c1ccc(-c2cc(-c3cccs3)[nH]n2)cc1 [Compound 16] | A (100-70% of the nematodes were immovable.)
8 | CSc1ccc(-c2cc(-c3cccs3)[nH]n2)cc1 [Compound 19] | A (100-70% of the nematodes were immovable.)
9 | FC(F)Oc1ccc(-c2cc(-c3cccs3)[nH]n2)cc1 [Compound 25] | A (100-70% of the nematodes were immovable.)
10 | FC(F)(F)Oc1ccc(-c2cc(-c3cccs3)[nH]n2)cc1 [Compound 26] | A (100-70% of the nematodes were immovable.)
11 | Fc1cccc(F)c1-c1cc(-c2cccs2)[nH]n1 [Compound 37] | A (100-70% of the nematodes were immovable.)
12 | Cc1c(-c2ccc(Cl)cc2)n[nH]c1-c1cccs1 [Compound 45] | A (100-70% of the nematodes were immovable.)
13 | CSCc1c(-c2ccc(Cl)cc2)n[nH]c1-c1cccs1 [Compound 49, 3-(4-Chlorophenyl)-4-methylmercaptomethyl-5-(2-thienyl)-1H-pyrazole] | A (100-70% of the nematodes were immovable.)
